Test results: article doi:10.1101/2024.04.01.587525
No constants are given. Whether binding was seen depends on the method and setting. In cells and extracts the contact can be indirect. Some entries that bind do so weakly or less than the wild type. Sequences can lack the tags named with a protein.

Target: T1, DNA Damage Binding protein 2 (DDB2)-FLAG fusion protein (Arabidopsis thaliana) (UniProt Q6NQ88)
T1 sequence: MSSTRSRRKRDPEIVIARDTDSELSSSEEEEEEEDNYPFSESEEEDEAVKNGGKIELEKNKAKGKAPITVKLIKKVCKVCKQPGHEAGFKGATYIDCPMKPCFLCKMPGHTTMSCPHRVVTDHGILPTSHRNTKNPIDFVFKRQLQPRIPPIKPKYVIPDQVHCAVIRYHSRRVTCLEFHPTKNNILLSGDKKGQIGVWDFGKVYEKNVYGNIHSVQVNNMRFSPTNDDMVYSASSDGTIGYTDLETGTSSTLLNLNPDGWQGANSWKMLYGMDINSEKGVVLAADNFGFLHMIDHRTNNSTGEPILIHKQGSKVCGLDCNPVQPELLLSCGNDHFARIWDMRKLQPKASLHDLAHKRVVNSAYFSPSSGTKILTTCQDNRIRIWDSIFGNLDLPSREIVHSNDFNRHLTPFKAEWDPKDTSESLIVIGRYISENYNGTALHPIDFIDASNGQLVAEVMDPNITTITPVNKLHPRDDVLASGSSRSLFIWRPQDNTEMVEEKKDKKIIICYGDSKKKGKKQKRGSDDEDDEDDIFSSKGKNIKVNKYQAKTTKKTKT
Experiment: co-IP

B1: Jumonji27 (JMJ27)-GFP fusion protein (protein, UniProt Q8VYB9 1-840)
chain: MEKMRGKRIRPRDSGELVEDGRSESERKTRKKENDVVSKGRIGRGRGRGEVSKRSIEIDISNPEKDIKPDGSRKCLGSTCHHCKILTSESDLIFCSKCNKKCYCFDCIKRSYSERTHEEVRAACPFCMMTCICRACLRLPLVIKPPSEKDTDVKLKQLQYLLVKVLPVLKDIYTEQNRELEIESTIRGHPVTEANIKRCKLDPSERIYCDLCRTSIANFHRSCPNKNCSVDICLSCCKELSEGFHQERDGKKNAEGKGYECRIPAGQGKDSDAYVPLHFSTWKLNSDSSIPCPPKECGGCGTSTLELRRLWKRDWVEKLITNAEKCTLNFRPTDVDIVHECSSCSTNSDSIRRQAAFRKNAHDNFLYSPNAVDLAEDDIAHFQFHWMKAEPVIVRNVLEKTSGLSWEPMVMWRACREMDPKRKGTEEETTKVKALDCLDWCEVEINLHQFFEGYLEGRMHKNGWPEMLKLKDWPPSDLFEKRLPRHNAEFIAALPFFDYTDPKSGILNLATRFPEGSLKPDLGPKTYIAYGFHEELNRGDSVTKLHCDISDAVNVLTHTAKVEIPPVKYQNIKVHQKKYAEAMLQKQQYSGQVKEASELENKSMKEVDESKKDLKDKAANEEQSNNSSRPSGSGEAEKVIISKEDNPTQPAVSTSVESIQEQKLDAPKETDGNTNERSKAVHGGAVWDIFRREDVPKLIQFLKRHEHEFRHFNNEPLESVIHPIHDQTMFLSDSQKKQLKEEFDIEPWTFEQHLGEAVFIPAGCPHQVRNRQSCIKVALDFVAPESVEECLRLTQEFRRLPKDHSSSEDKLELKKIALYAASSAIREVKGLMQSSRRSDT
Question: With B1 as the binder, how does the binding read?
Answer: Its binding is “binds”.
